Experiment [1] deals with 2'-5' oligoadenylate synthetase 2 (OAS2) p69 isoform (human) (UniProt P29728). In words: cross-linking; A549 cells expressing OAS2 p71 or p69 treated with or without 0.5% formaldehyde for 10 min at room temperature, quenched with 0.25 M glycine, lysed in RIPA buffer, sonicated; OAS2 detected by Western blot. On the technique in general: A western blot detects proteins with antibodies after separation by electrophoresis.

For experiment [2], the target named is 2'-5' oligoadenylate synthetase 2 (OAS2) p71 isoform (human) (UniProt P29728). The description is as above.

These are yes or no findings as the source states them, for the method shown. Binding seen in cells or lysates may run through a third protein. Some results given as binding are weak or reduced against the parent protein; the word gives no strength.

B1: 2'-5' oligoadenylate synthetase 2 (OAS2) p69 isoform (protein, UniProt P29728-2 1-687)
chain: MGNGESQLSSVPAQKLGWFIQEYLKPYEECQTLIDEMVNTICDVLQEPEQFPLVQGVAIGGSYGRKTVLRGNSDGTLVLFFSDLKQFQDQKRSQRDILDKTGDKLKFCLFTKWLKNNFEIQKSLDGFTIQVFTKNQRISFEVLAAFNALSLNDNPSPWIYRELKRSLDKTNASPGEFAVCFTELQQKFFDNRPGKLKDLILLIKHWHQQCQKKIKDLPSLSPYALELLTVYAWEQGCRKDNFDIAEGVRTVLELIKCQEKLCIYWMVNYNFEDETIRNILLHQLQSARPVILDPVDPTNNVSGDKICWQWLKKEAQTWLTSPNLDNELPAPSWNVLPAPLFTTPGHLLDKFIKEFLQPNKCFLEQIDSAVNIIRTFLKENCFRQSTAKIQIVRGGSTAKGTALKTGSDADLVVFHNSLKSYTSQKNERHKIVKEIHEQLKAFWREKEEELEVSFEPPKWKAPRVLSFSLKSKVLNESVSFDVLPAFNALGQLSSGSTPSPEVYAGLIDLYKSSDLPGGEFSTCFTVLQRNFIRSRPTKLKDLIRLVKHWYKECERKLKPKGSLPPKYALELLTIYAWEQGSGVPDFDTAEGFRTVLELVTQYQQLCIFWKVNYNFEDETVRKFLLSQLQKTRPVILDPAEPTGDVGGGDRWCWHLLAKEAKEWLSSPCFKDGTGNPIPPWKVPVKVI
Turning to B1, in experiment [1], the binding result is “binds”.

B2: 2'-5' oligoadenylate synthetase 2 (OAS2) p71 isoform (protein, UniProt P29728-1 1-719)
chain: MGNGESQLSSVPAQKLGWFIQEYLKPYEECQTLIDEMVNTICDVLQEPEQFPLVQGVAIGGSYGRKTVLRGNSDGTLVLFFSDLKQFQDQKRSQRDILDKTGDKLKFCLFTKWLKNNFEIQKSLDGFTIQVFTKNQRISFEVLAAFNALSLNDNPSPWIYRELKRSLDKTNASPGEFAVCFTELQQKFFDNRPGKLKDLILLIKHWHQQCQKKIKDLPSLSPYALELLTVYAWEQGCRKDNFDIAEGVRTVLELIKCQEKLCIYWMVNYNFEDETIRNILLHQLQSARPVILDPVDPTNNVSGDKICWQWLKKEAQTWLTSPNLDNELPAPSWNVLPAPLFTTPGHLLDKFIKEFLQPNKCFLEQIDSAVNIIRTFLKENCFRQSTAKIQIVRGGSTAKGTALKTGSDADLVVFHNSLKSYTSQKNERHKIVKEIHEQLKAFWREKEEELEVSFEPPKWKAPRVLSFSLKSKVLNESVSFDVLPAFNALGQLSSGSTPSPEVYAGLIDLYKSSDLPGGEFSTCFTVLQRNFIRSRPTKLKDLIRLVKHWYKECERKLKPKGSLPPKYALELLTIYAWEQGSGVPDFDTAEGFRTVLELVTQYQQLCIFWKVNYNFEDETVRKFLLSQLQKTRPVILDPAEPTGDVGGGDRWCWHLLAKEAKEWLSSPCFKDGTGNPIPPWKVPTMQTPGSCGARIHPIVNEMFSSRSHRILNNNSKRNF
Regarding B2, the binding result in experiment [2] is reported as “binds”.

Source of the values: PMC13372824.
